Data reported in paper PMC11339177.

The chains behind the UniProt entries cited, without tags or fusion partners. Where a name states a change or a piece, a line headed by the entry shows the natural chain unless it says otherwise. Residues count along the entry.
UniProt Q14126, residues 50-1118: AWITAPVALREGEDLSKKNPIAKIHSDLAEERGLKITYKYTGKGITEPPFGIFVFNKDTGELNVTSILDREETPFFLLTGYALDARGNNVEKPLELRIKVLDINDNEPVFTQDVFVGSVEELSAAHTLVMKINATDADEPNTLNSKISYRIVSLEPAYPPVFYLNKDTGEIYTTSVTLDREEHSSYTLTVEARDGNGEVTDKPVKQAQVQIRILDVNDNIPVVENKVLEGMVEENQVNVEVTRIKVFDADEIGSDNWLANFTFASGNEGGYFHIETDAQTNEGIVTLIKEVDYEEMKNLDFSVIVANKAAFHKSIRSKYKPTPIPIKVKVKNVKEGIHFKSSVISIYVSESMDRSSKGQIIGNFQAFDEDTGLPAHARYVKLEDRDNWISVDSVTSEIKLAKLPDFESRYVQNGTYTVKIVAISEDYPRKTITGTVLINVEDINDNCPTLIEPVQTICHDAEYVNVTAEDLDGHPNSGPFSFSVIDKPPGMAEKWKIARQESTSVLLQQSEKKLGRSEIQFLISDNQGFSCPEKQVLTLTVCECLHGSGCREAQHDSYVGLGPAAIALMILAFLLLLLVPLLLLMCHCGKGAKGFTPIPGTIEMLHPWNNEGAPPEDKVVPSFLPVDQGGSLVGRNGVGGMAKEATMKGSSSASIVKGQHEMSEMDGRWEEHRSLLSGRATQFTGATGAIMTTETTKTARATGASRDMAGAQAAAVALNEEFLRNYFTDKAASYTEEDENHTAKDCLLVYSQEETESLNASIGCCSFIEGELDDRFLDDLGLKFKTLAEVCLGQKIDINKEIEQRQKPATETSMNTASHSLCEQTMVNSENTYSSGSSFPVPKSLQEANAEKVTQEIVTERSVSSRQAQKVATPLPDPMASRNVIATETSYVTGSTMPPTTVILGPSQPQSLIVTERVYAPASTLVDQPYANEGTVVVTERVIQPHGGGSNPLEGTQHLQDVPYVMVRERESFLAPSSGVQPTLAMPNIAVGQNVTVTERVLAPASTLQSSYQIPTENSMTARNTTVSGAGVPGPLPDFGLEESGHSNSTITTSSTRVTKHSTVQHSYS
UniProt P14780: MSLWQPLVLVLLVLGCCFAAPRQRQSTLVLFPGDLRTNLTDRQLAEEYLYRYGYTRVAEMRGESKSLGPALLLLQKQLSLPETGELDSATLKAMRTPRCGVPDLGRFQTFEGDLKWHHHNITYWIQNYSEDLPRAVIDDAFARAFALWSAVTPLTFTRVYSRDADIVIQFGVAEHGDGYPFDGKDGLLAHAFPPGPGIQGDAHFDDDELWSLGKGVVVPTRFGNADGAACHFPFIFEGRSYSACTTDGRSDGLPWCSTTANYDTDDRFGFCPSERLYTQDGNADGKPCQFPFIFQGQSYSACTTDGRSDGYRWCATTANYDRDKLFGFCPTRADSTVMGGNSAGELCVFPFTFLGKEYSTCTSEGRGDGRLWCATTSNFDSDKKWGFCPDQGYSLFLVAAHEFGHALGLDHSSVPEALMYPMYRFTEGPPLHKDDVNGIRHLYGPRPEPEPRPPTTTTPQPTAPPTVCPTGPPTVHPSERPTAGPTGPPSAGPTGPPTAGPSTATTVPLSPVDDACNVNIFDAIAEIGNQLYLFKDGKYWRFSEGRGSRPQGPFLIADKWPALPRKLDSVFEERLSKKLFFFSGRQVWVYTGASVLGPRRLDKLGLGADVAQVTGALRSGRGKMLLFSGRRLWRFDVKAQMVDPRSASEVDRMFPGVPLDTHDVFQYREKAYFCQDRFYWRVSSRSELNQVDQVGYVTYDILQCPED

Molecular target: desmoglein-2 (DSG2), expressed from the plasmid DSG2-pEGFP-C1 (UniProt Q14126)
Assay: co-IP; immunoprecipitation of DSG2 protein from transfected cells (Pierce Classic Magnetic Bead IP/Co-IP Kit), eluate analysed by Western blot; cell line not stated

matrix metallopeptidase 9 (MMP-9) (from UniProt P14780)
binding: binds

Results are given in words; binding and its absence hold for the method and conditions named. Binding seen in cells or lysates may run through a third protein. A result given as binding can be weak or reduced; the word gives no strength.
